Results published in the supplement of paper PMC10849652.
The list shows a part of the results. Residues, ends and D or L forms follow the SMILES beside them. *: point of attachment. Cbz = O=C(OCc1ccccc1)*

Chains of the proteins cited; added tags and fusions are not shown. Lines headed by an entry give the natural chain unless they say otherwise; changes in a name come on top.
UniProt Q96NA2: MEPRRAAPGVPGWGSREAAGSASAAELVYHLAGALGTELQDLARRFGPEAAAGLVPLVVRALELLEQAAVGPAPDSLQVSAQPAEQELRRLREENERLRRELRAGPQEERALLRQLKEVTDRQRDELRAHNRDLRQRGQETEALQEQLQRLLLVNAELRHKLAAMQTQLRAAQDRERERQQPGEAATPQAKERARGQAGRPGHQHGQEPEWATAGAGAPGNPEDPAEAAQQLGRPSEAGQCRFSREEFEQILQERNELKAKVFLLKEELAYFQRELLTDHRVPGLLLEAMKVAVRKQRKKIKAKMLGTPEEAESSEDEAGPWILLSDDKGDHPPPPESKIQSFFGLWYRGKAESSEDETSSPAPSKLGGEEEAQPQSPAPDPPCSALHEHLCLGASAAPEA
UniProt P40937, whole entry, looked up: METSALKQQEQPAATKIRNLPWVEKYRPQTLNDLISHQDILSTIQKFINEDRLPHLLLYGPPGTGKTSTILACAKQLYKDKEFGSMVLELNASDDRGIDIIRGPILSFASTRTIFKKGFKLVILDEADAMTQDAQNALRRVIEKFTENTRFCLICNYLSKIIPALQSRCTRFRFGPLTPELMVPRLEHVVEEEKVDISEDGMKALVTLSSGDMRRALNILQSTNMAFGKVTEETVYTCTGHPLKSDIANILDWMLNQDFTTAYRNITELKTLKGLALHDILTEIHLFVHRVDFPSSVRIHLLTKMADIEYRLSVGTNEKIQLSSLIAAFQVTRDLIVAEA
UniProt Q8IXI1, whole entry, looked up: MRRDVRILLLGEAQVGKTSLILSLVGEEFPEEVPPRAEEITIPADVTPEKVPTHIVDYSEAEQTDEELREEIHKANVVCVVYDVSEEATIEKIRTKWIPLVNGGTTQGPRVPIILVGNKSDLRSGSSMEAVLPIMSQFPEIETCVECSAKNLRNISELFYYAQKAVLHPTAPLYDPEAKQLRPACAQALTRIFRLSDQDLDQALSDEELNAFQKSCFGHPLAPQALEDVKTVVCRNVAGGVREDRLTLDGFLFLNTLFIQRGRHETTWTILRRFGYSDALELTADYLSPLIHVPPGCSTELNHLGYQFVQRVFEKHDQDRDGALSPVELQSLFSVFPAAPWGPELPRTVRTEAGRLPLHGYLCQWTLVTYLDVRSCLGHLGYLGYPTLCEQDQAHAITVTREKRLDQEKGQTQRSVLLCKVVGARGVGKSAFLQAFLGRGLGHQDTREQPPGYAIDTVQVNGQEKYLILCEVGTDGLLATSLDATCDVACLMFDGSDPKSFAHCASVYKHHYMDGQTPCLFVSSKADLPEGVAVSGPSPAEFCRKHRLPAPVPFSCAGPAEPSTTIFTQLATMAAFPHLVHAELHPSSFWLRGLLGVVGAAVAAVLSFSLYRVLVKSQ
UniProt Q8ND24: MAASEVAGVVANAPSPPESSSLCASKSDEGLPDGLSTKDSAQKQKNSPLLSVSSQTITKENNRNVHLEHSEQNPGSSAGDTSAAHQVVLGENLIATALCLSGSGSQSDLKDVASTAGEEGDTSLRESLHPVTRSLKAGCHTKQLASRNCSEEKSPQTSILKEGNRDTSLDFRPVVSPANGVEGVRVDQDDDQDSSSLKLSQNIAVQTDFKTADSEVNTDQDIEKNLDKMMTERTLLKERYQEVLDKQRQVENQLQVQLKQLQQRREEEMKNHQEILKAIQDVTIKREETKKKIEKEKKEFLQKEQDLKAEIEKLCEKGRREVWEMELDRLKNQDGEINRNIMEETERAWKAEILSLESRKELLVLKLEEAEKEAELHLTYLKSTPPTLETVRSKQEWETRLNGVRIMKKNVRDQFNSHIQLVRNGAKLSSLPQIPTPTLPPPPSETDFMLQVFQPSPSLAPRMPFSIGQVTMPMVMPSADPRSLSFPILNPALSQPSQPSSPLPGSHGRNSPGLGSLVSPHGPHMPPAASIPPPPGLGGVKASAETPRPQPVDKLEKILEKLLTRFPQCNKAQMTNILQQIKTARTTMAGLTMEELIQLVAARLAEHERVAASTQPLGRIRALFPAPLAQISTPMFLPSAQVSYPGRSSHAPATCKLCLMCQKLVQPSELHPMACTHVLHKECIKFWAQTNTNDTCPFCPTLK
UniProt Q6JBY9, whole entry, looked up: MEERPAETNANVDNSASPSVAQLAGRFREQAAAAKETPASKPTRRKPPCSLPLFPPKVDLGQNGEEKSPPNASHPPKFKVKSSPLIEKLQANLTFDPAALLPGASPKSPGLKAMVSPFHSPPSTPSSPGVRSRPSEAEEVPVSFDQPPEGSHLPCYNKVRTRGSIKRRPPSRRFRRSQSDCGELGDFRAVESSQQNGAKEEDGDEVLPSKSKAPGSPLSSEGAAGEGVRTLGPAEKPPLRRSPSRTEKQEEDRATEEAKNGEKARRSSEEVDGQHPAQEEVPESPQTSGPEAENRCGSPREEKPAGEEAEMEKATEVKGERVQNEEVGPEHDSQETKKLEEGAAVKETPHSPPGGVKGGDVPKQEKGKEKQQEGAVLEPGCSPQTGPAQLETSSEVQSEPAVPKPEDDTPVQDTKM
UniProt Q9P0P0: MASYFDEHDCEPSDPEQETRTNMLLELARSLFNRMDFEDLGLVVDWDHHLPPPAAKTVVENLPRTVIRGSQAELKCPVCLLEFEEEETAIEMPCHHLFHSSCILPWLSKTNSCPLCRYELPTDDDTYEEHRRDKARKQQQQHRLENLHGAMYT
UniProt Q8WZ73: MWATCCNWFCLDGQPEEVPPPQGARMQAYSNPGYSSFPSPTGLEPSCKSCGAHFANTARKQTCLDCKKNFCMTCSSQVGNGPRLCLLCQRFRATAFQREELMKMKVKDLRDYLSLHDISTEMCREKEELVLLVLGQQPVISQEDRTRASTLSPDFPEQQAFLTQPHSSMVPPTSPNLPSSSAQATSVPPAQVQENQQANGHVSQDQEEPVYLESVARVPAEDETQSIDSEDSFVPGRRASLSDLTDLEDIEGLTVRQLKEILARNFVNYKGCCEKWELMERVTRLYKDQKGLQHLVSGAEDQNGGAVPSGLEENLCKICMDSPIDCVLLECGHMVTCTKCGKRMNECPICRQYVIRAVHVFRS
UniProt Q8IXI2: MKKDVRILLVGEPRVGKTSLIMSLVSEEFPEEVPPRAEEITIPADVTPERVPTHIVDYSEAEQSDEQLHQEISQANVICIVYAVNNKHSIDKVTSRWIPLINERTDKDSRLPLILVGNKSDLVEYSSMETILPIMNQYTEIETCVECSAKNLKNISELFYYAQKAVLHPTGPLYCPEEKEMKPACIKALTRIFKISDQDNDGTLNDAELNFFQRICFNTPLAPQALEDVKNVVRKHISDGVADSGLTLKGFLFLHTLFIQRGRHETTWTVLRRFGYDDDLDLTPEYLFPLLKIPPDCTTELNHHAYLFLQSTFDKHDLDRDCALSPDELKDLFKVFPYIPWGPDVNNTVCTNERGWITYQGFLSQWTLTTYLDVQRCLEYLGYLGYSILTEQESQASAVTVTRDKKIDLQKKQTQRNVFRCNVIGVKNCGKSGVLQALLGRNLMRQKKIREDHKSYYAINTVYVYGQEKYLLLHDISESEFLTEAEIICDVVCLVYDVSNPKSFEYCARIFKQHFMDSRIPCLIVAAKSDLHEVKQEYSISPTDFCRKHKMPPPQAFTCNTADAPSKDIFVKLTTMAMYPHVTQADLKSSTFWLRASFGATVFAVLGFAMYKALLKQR
UniProt P38159: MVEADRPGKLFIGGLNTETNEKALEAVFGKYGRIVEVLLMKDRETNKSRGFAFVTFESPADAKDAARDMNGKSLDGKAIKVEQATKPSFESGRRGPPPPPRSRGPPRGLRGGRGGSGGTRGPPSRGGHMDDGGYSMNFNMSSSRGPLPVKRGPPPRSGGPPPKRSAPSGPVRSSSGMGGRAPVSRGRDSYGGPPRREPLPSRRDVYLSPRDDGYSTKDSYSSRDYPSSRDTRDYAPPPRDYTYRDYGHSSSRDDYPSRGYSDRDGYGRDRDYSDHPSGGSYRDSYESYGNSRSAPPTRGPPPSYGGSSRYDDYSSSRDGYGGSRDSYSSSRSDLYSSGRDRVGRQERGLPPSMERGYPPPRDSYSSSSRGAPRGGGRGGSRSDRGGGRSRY
UniProt P62745, whole entry, looked up: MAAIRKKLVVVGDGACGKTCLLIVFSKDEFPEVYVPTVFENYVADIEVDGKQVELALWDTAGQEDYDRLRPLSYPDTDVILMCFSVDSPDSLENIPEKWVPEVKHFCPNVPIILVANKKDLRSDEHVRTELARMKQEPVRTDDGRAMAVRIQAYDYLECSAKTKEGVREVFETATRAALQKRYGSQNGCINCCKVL
UniProt P34096: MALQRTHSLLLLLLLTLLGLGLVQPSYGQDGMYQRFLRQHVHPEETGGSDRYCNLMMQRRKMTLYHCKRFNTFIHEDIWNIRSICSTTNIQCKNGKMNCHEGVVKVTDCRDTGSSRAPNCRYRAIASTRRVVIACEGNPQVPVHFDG
UniProt P51606: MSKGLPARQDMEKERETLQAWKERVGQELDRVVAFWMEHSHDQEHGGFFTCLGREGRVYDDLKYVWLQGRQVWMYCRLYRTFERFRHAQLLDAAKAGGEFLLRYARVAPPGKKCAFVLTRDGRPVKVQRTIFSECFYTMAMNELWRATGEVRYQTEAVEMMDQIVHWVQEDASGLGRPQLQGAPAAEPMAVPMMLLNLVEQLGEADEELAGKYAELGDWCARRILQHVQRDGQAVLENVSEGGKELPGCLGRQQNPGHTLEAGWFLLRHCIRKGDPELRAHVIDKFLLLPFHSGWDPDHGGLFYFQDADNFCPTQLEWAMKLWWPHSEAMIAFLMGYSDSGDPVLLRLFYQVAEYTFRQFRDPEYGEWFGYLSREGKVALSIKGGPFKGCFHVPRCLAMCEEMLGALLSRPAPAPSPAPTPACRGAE
UniProt P35249, whole entry, looked up: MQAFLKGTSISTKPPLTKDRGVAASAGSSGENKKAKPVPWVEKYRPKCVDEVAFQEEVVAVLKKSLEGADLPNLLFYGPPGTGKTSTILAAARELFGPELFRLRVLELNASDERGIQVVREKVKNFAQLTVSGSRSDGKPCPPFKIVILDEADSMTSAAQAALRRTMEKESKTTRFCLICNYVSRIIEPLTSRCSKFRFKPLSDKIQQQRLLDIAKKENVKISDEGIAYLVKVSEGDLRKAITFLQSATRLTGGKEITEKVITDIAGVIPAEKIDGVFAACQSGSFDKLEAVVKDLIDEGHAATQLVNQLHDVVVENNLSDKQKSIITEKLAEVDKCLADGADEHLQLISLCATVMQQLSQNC
UniProt O15541: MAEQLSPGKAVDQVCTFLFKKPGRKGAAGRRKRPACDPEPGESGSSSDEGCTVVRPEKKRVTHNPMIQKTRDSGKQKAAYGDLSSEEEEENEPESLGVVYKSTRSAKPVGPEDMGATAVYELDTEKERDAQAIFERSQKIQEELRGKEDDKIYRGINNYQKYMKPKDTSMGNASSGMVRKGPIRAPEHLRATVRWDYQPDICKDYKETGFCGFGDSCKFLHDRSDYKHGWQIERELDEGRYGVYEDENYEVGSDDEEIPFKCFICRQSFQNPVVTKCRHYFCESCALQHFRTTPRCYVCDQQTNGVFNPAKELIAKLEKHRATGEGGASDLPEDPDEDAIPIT
UniProt Q9BRS2: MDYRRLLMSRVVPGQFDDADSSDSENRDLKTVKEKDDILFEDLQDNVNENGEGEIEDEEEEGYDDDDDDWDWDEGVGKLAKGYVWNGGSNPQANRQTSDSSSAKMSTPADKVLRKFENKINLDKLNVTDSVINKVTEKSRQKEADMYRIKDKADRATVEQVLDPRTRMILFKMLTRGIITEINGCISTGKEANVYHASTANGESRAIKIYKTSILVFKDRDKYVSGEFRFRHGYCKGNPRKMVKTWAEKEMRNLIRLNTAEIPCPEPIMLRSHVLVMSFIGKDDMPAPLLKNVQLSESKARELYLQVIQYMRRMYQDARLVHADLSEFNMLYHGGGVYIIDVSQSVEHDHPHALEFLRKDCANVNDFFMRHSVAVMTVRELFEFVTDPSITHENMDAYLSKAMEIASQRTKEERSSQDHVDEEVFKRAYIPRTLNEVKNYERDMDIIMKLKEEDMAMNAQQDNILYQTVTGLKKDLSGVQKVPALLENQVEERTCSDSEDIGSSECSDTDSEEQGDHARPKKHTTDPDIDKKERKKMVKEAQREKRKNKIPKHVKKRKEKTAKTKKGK

Assays:
Experiment in all cases: log2 fold change, soluble protein after heating vs DMSO (PISA); higher = thermal stabilisation; K562 cells, 10 uM, 30 min; active = over 0.2 and 3.5 SD of the protein, either way, in both replicates (recomputed)
[1] = compound: C#Cc1cccc(Nc2ncnc3cc(OCCOC)c(OCCOC)cc23)c1 [erlotinib]
Summary of the method: (§1)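 Soluble protein was quantified by TMTpro 16plex LC-MS/MS after channel sums were equalised. It was obtained as the supernatant after 21,000xg for 90 min from pooled aliquots of K562 cells (2×10^6 cells/mL, 10 μM compound, 30 min) heated for 3 min across 48°C-58°C and extracted in PBS with 0.5% NP-40 at 4°C. Thermal stability values are relative to control samples and come from duplicates. They are given as log2 fold changes.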

[2] = compound: C/C(=N\NC(=O)C1=CC(=CC=C1)S(=O)(=O)N2CCOCC2)/C3=C(C=CC(=C3)Cl)O
Summary of the method: as §1

[3] = compound: C1=CC(=C(C=C1Cl)C2=NC3=NC=CN=C3C(=N2)NC4=CC=NC=C4)F
Summary of the method: as §1

[4] = compound: C1=CC(=CC=C1C2=NC3=C(N2)C=C(C=C3)C(=O)N)OC4=CC=C(C=C4)Cl
Summary of the method: as §1

[5] = compound: C1=CC2=C(C=CC(=C2)/C=C\3/C(=O)NC(=NCC4=CC=CS4)S3)N=C1
Summary of the method: as §1

[6] = compound: C1=CC2=NC=CN=C2C=C1/C=C/3\C(=O)NC(=O)S3
Summary of the method: as §1

[7] = compound: C1=CC=C(C=C1)C2=NC(=C(N2)C3=CC=NC=C3)C4=CC(=C(C=C4)Cl)O
Summary of the method: as §1

[8] = compound: C1=CC=C2C(=C1)C3=NNC4=CC=CC(=C43)C2=O
Summary of the method: as §1

[9] = compound: C1CCN(C1)C(=O)NC2=CC=CC(=C2)NC3=NC=C(C(=N3)NCCC4=CN=CN4)Br
Summary of the method: as §1

[10] = compound: C1CN(CCC1(CC2=CC=C(C=C2)Cl)N)C3=NC=NC4=C3C=CN4
Summary of the method: as §1

[11] = compound: C1COCCN1CCN2C3=CC=CC=C3N=C2NC(=O)C4=CC(=CC=C4)[N+](=O)[O-] [IRAK-1-4 Inhibitor I]
Summary of the method: as §1

[12] = compound: C=CC(=O)N1CCC[C@@H](n2nc(-c3ccc(Oc4ccccc4)cc3)c3c(N)ncnc32)C1 [ibrutinib]
Summary of the method: as §1

[13] = compound: CC(=O)c1cnc2ccc(-c3cc(Cl)c(O)c(Cl)c3)nc2c1N[C@H]1CC[C@H](CN(C)C)CC1
Summary of the method: as §1

[14] = compound: CC(C)(C)Cn1c(N)nc2ccc(-c3[nH]c(C(C)(C)C)nc3-c3ccc(F)cc3)nc21 [ralimetinib]
Summary of the method: as §1

[15] = compound: CC(C)(O)CC(=O)NCCn1ccc2ncnc(Nc3ccc(Oc4cccc(C(F)(F)F)c4)c(Cl)c3)c21
Summary of the method: as §1

[16] = compound: CC(C)C1=C2N=C(C=C(N2N=C1)NCC3=CC=CC=C3)NCCCCCCN
Summary of the method: as §1

[17] = compound: CC(C)C[C@@H](C=O)NC(=O)[C@H](CC(C)C)NC(=O)[C@H](CC(C)C)NC(=O)OCc1ccccc1
Summary of the method: as §1

[18] = compound: CC(C)N(C[C@H]1O[C@@H](n2cnc3c(N)ncnc32)[C@H](O)[C@@H]1O)[C@H]1C[C@@H](CCc2nc3cc(C(C)(C)C)ccc3[nH]2)C1 [pinometostat]
Summary of the method: as §1

[19] = compound: CC1=C(C(CC(=O)N1)C2=CC=C(C=C2)C(F)(F)F)C(=O)NC3=C(C=C4C(=C3)C=NN4)F
Summary of the method: as §1

[20] = compound: CC1=C(C2=C(C=C1)C(=O)C3=CC=CC=C3N2CCCN)C
Summary of the method: as §1

Measured: log2 fold change

RILP (UniProt Q96NA2)
inactive: [1] 0 | [2] 0.08 | [3] 0.008 | [4] 0.036 | [5] -0.001 | [6] -0.033 | [7] 0.042 | [8] 0.013 | [9] 0.015 | [10] 0.017 | [11] 0.012 | [12] -0.004 | [13] -0.126 | [14] 0.013 | [15] 0.015 | [16] -0.041 | [17] -0.003 | [18] 0.003 | [19] 0.007 | [20] 0.032

RFC5 (UniProt P40937)
inactive: [1] 0.032 | [2] 0.005 | [3] 0.067 | [4] -0.013 | [5] 0.036 | [6] 0 | [7] 0.012 | [8] 0.029 | [9] 0.003 | [10] 0.028 | [11] 0.022 | [12] 0.012 | [13] -0.034 | [14] -0.028 | [15] -0.038 | [16] -0.046 | [17] -0.011 | [18] -0.013 | [19] 0.026 | [20] -0.002

RHOT2 (UniProt Q8IXI1)
inactive: [1] 0.101 | [2] 0.021 | [3] -0.054 | [4] -0.025 | [5] 0.065 | [6] -0.004 | [7] -0.037 | [8] 0.011 | [9] -0.003 | [10] -0.06 | [11] -0.087 | [12] -0.004 | [13] -0.013 | [14] 0 | [15] -0.065 | [16] -0.002 | [17] -0.019 | [18] 0.058 | [19] -0.023 | [20] 0.036

RNF214 (UniProt Q8ND24)
inactive: [1] 0.07 | [2] 0.089 | [3] 0.003 | [4] -0.009 | [5] 0.032 | [6] -0.042 | [7] -0.068 | [8] 0.084 | [9] -0.053 | [10] -0.068 | [11] -0.037 | [12] 0.086 | [13] -0.071 | [14] 0.01 | [15] -0.068 | [16] -0.001 | [17] 0.089 | [18] 0.084 | [19] 0.002 | [20] 0.086

RCSD1 (UniProt Q6JBY9)
inactive: [1] 0.047 | [2] -0.133 | [3] 0.054 | [4] -0.008 | [5] -0.044 | [6] 0.098 | [7] -0.113 | [8] 0.032 | [9] 0.039 | [10] 0.074 | [11] 0.012 | [12] 0.183 | [13] 0.227 | [14] -0.032 | [15] -0.041 | [16] 0.014 | [17] 0.002 | [18] -0.07 | [19] 0.016 | [20] -0.039

RNF181 (UniProt Q9P0P0)
inactive: [1] 0.056 | [2] -0.064 | [3] 0.068 | [4] -0.029 | [5] -0.003 | [6] 0.048 | [7] -0.012 | [8] -0.023 | [9] -0.001 | [10] -0.011 | [11] 0.034 | [12] 0.023 | [13] -0.029 | [14] -0.024 | [15] 0.01 | [16] 0.107 | [17] 0.069 | [18] -0.009 | [19] -0.001 | [20] 0.04

RFFL (UniProt Q8WZ73)
inactive: [1] -0.044 | [2] 0.094 | [3] 0.112 | [4] -0.003 | [5] 0.036 | [6] 0.023 | [7] 0.057 | [8] -0.083 | [9] -0.004 | [10] -0.046 | [11] 0.049 | [12] 0.06 | [13] 0.123 | [14] -0.054 | [15] -0.103 | [16] 0.102 | [17] 0.049 | [18] -0.08 | [19] -0.041 | [20] 0.108

Copied from the entries so far (2 entries):
RNF181 (UniProt Q9P0P0)
inactive: [1] 0.056 | [2] -0.064 | [3] 0.068 | [4] -0.029 | [5] -0.003 | [6] 0.048 | [7] -0.012 | [8] -0.023 | [9] -0.001 | [10] -0.011 | [11] 0.034 | [12] 0.023 | [13] -0.029 | [14] -0.024 | [15] 0.01 | [16] 0.107 | [17] 0.069 | [18] -0.009 | [19] -0.001 | [20] 0.04

RFFL (UniProt Q8WZ73)
inactive: [1] -0.044 | [2] 0.094 | [3] 0.112 | [4] -0.003 | [5] 0.036 | [6] 0.023 | [7] 0.057 | [8] -0.083 | [9] -0.004 | [10] -0.046 | [11] 0.049 | [12] 0.06 | [13] 0.123 | [14] -0.054 | [15] -0.103 | [16] 0.102 | [17] 0.049 | [18] -0.08 | [19] -0.041 | [20] 0.108

The results go on:

RNF20 (UniProt Q5VTR2)
inactive: [1] 0.035 | [2] 0.071 | [3] 0.06 | [4] -0.037 | [5] 0.153 | [6] 0.036 | [7] -0.259 | [8] -0.111 | [9] -0.033 | [10] -0.165 | [11] -0.086 | [12] -0.055 | [13] -0.016 | [14] -0.088 | [15] -0.074 | [16] -0.189 | [17] 0.096 | [18] -0.039 | [19] 0.016 | [20] -0.115

RHOT1 isoform 3 (UniProt Q8IXI2)
inactive: [1] 0.067 | [2] 0.038 | [3] 0.07 | [4] -0.014 | [5] 0.021 | [6] 0.007 | [7] 0.038 | [8] 0.003 | [9] -0.035 | [10] 0.034 | [11] 0.018 | [12] -0.017 | [13] -0.021 | [14] -0.025 | [15] -0.02 | [16] -0.194 | [17] -0.03 | [18] -0.017 | [19] 0.029 | [20] 0.022

RBMX (UniProt P38159)
inactive: [1] -0.103 | [2] -0.101 | [3] -0.606 | [4] 0.064 | [5] -0.141 | [6] 0.04 | [7] -0.073 | [8] -0.032 | [9] 0.074 | [10] -0.193 | [11] -0.218 | [12] 0.017 | [13] -0.021 | [14] 0.139 | [15] 0.064 | [16] 0.1 | [17] 0.211 | [18] 0.16 | [19] -0.028 | [20] -0.16

RHOB (UniProt P62745)
inactive: [1] -0.11 | [2] 0.018 | [3] 0.165 | [4] -0.006 | [5] -0.097 | [6] 0.006 | [7] 0.074 | [8] -0.102 | [9] -0.056 | [10] -0.022 | [11] -0.043 | [12] 0.03 | [13] 0.185 | [14] -0.012 | [15] -0.138 | [16] 0.017 | [17] -0.136 | [18] -0.055 | [19] 0.055 | [20] -0.077

RNASE4 (UniProt P34096)
inactive: [1] -0.146 | [2] -0.017 | [3] 0.338 | [4] 0.037 | [5] -0.037 | [6] -0.019 | [7] -0.016 | [8] -0.111 | [9] -0.069 | [10] 0.099 | [11] -0.064 | [12] 0.158 | [13] 0.037 | [14] 0.034 | [15] -0.085 | [16] 0.014 | [17] 0.13 | [18] -0.014 | [19] 0.162 | [20] -0.01

RENBP (UniProt P51606)
inactive: [1] -0.009 | [2] -0.001 | [3] 0.045 | [4] 0.016 | [5] 0.02 | [6] 0.02 | [7] -0.042 | [8] -0.025 | [9] -0.004 | [10] -0.014 | [11] -0.049 | [12] -0.002 | [13] -0.023 | [14] -0.108 | [15] 0.022 | [16] 0.058 | [17] -0.017 | [18] 0.007 | [19] 0.001 | [20] -0.017

RFC4 (UniProt P35249)
inactive: [1] 0.013 | [2] 0.046 | [3] 0.111 | [4] 0.012 | [5] -0.006 | [6] 0.015 | [7] 0.029 | [8] 0.01 | [9] -0.043 | [10] 0.013 | [11] 0.069 | [12] 0.011 | [13] 0.024 | [14] -0.015 | [15] -0.046 | [16] -0.039 | [17] 0 | [18] -0.014 | [19] 0.047 | [20] 0

RNF113A (UniProt O15541)
inactive: [1] 0.008 | [2] 0.001 | [3] 0.041 | [4] 0.003 | [5] -0.023 | [6] 0.034 | [7] -0.056 | [8] 0.018 | [9] 0.016 | [10] 0.099 | [11] 0.031 | [12] 0.029 | [13] -0.009 | [14] -0.079 | [15] 0.024 | [16] 0.072 | [17] 0.027 | [18] 0.001 | [19] 0.029 | [20] 0

RIOK1 (UniProt Q9BRS2)
inactive: [1] 0 | [2] -0.05 | [3] -0.062 | [4] 0.045 | [5] 0.014 | [6] 0.029 | [7] -0.069 | [8] 0.001 | [9] 0.046 | [10] -0.013 | [11] 0.004 | [12] 0.005 | [13] -0.096 | [14] 0.008 | [15] 0.023 | [16] 0.097 | [17] 0.031 | [18] -0.02 | [19] -0.005 | [20] 0.025
